Values of other authors as cited in patent US20050142067A1, “Zintrodes, multitrodes and uses thereof” (priority 2003, published 2005).
Some results were stated once for a whole list of compounds, not compound by compound. At least one structure is not confirmed: it was looked up by name or label, or the drawing left a doubt. Some compounds share one range, which may span the group rather than tell each member.

conditions: Zinpyr sensors; read-out: KD for zinc; cited from earlier work

Kd, 500 to 1000 pM:
O=C(O)c1ccccc1-c1c2cc(Cl)c(=O)c(CN(Cc3ccccn3)Cc3ccccn3)c-2oc2c(CN(Cc3ccccn3)Cc3ccccn3)c(O)c(Cl)cc12 [ZP1, 9-(o-carboxyphenyl)-2,7-dichloro-4,5-bis[bis(2-pyridylmethyl)-aminomethyl]-6-hydroxy-3-xanthanone]
O=C(O)c1ccccc1-c1c2ccc(=O)c(CN(Cc3ccccn3)Cc3ccccn3)c-2oc2c(CN(Cc3ccccn3)Cc3ccccn3)c(O)ccc12 [ZP2, 9-(o-carboxyphenyl)-4,5-bis[bis(2-pyridylmethyl)-aminomethyl]-6-hydroxy-3-xanthanone]
O=C(O)c1ccccc1-c1c2cc(Cl)c(=O)cc-2oc2c(CNc3ccccc3CN(Cc3ccccn3)Cc3ccccn3)c(O)ccc12 [ZP4, 9-(o-carboxyphenyl)-2-chloro-5-[2-{bis(2-pyridylmethyl)aminomethyl}-N-methylaniline]-6-hydroxy-3-xanthanone]
